For part of these data: No signal at the amounts used counts as a negative. For part of these data: Tags and fusion partners may be left off the protein sequences shown. For part of these data: Construct, isoform or probe ends are uncertain for at least one entry. For part of these data: A weaker result is weaker than the reference pair of the same experiment.
Experiments:
[1] = biological target: human MCP-1 (CCL2, natural L-form) (Homo sapiens) (UniProt P13500); experiment: SPR; conditions: L-RNA, 37 C, purified recombinant protein, protein details: recombinant, Bachem for cell assays, mirror-image nucleic acid
[2] = biological target: T1, human MIP-1alpha (CCL3) (Homo sapiens) (UniProt P10147); experiment: activity in cells; conditions: L-RNA; no inhibition of MIP-1alpha induced THP-1 chemotaxis up to 1 uM; purified recombinant protein; mirror-image nucleic acid
T1 sequence: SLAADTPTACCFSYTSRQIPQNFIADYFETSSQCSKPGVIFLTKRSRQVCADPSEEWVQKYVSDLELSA

The chains behind the UniProt entries cited, without tags or fusion partners. Residues count along the entry.
UniProt P52203, 24-99: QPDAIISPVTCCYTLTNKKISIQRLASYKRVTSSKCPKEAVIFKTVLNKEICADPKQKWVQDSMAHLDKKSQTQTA
UniProt P14844, 24-148: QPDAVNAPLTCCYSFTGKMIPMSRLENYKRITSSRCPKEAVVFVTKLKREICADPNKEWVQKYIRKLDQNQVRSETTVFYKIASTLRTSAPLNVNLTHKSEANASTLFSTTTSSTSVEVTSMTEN
UniProt P80075, 24-99: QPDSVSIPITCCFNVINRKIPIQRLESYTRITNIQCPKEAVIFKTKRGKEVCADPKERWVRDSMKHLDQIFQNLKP
UniProt P10148, 24-148: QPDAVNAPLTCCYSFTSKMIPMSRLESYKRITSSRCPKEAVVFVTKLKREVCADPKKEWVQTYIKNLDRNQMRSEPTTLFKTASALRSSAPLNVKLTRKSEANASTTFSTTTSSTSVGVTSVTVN
UniProt P28292, 24-125: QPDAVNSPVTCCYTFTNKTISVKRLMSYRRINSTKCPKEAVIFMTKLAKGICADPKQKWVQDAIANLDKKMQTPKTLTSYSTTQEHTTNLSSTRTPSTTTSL
UniProt P51671, 24-97: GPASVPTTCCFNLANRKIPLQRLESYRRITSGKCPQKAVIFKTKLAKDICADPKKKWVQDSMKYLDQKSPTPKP
UniProt Q99616, 17-98: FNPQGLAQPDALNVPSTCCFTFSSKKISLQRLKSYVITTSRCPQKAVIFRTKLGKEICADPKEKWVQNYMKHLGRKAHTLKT
UniProt P42830, 38-114: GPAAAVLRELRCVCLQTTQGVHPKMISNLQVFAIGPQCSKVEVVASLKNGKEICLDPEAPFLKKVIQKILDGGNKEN

[3] = biological target: human MCP-1 (CCL2, natural L-form) (Homo sapiens) (UniProt P13500); experiment: activity in cells; conditions: L-RNA, purified recombinant protein, protein details: recombinant, Bachem for cell assays, mirror-image nucleic acid
[4] = biological target: canine MCP-1 (Canis familiaris) (UniProt P52203); experiment: SPR; conditions: L-RNA, purified recombinant protein, mirror-image nucleic acid
[5] = biological target: rat MCP-1 (Rattus norvegicus) (UniProt P14844); experiment: SPR; conditions: L-RNA, not recognized, purified recombinant protein, mirror-image nucleic acid
[6] = biological target: human MCP-2 (CCL8) (Homo sapiens) (UniProt P80075); experiment: SPR; conditions: L-RNA, 37 C, purified recombinant protein, mirror-image nucleic acid
[7] = biological target: murine MCP-1 (CCL2) (Mus musculus) (UniProt P10148); experiment: SPR; conditions: L-RNA, not recognized, purified recombinant protein, mirror-image nucleic acid
[8] = biological target: monkey MCP-1 (Macaca mulatta) (UniProt P61275); experiment: SPR; conditions: L-RNA, 37 C, purified recombinant protein, mirror-image nucleic acid
[9] = biological target: porcine MCP-1 (Sus scrofa) (UniProt P42831); experiment: SPR; conditions: L-RNA, purified recombinant protein, mirror-image nucleic acid
[10] = biological target: rabbit MCP-1 (Oryctolagus cuniculus) (UniProt P28292); experiment: SPR; conditions: L-RNA, purified recombinant protein, mirror-image nucleic acid
[11] = biological target: human MCP-3 (CCL7) (Homo sapiens) (UniProt P80098); experiment: SPR; conditions: L-RNA, 37 C, purified recombinant protein, mirror-image nucleic acid
[12] = biological target: human eotaxin (CCL11) (Homo sapiens) (UniProt P51671); experiment: SPR; conditions: L-RNA, 37 C, purified recombinant protein, mirror-image nucleic acid
[13] = biological target: T2, human Fractalkine (CX3CL1) (Homo sapiens) (UniProt P78423); experiment: SPR; conditions: L-RNA; 100 nM chemokine, 37 C; panel membership from sequence table; purified recombinant protein; label: 5'-biotin; synthetic backbone; mirror-image nucleic acid
T2 sequence: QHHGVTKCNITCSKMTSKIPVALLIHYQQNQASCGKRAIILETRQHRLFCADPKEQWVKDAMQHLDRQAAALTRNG

[14] = biological target: T3, human HCC-1 (CCL14) (Homo sapiens) (UniProt Q16627); experiment: SPR; conditions: L-RNA; 100 nM chemokine, 37 C; panel membership from sequence table; purified recombinant protein; label: 5'-biotin; synthetic backbone; mirror-image nucleic acid
T3 sequence: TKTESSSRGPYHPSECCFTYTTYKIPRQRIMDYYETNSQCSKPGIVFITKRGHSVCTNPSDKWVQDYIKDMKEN

[15] = biological target: human SDF-1beta (CXCL12beta) (Homo sapiens) (UniProt P48061); experiment: SPR; conditions: L-RNA; 100 nM chemokine, 37 C; panel membership from sequence table; purified recombinant protein; label: 5'-biotin; synthetic backbone; mirror-image nucleic acid
[16] = biological target: T4, human I-TAC (CXCL11) (Homo sapiens) (UniProt O14625); experiment: SPR; conditions: L-RNA; 100 nM chemokine, 37 C; panel membership from sequence table; purified recombinant protein; label: 5'-biotin; synthetic backbone; mirror-image nucleic acid
T4 sequence: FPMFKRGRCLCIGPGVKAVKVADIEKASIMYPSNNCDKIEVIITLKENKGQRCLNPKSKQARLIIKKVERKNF

[17] = biological target: human GROgamma (CXCL3) (Homo sapiens) (UniProt P19876); experiment: SPR; conditions: L-RNA; 100 nM chemokine, 37 C; panel membership from sequence table; purified recombinant protein; label: 5'-biotin; synthetic backbone; mirror-image nucleic acid
[18] = biological target: T5, human Lymphotactin (XCL1) (Homo sapiens) (UniProt P47992); experiment: SPR; conditions: L-RNA; 100 nM chemokine, 37 C; panel membership from sequence table; purified recombinant protein; label: 5'-biotin; synthetic backbone; mirror-image nucleic acid
T5 sequence: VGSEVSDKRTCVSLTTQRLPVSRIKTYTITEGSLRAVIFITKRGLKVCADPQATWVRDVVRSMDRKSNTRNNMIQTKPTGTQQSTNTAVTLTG

[19] = biological target: T6, human I-309 (CCL1) (Homo sapiens) (UniProt P22362); experiment: SPR; conditions: L-RNA; 100 nM chemokine, 37 C; panel membership from sequence table; purified recombinant protein; label: 5'-biotin; synthetic backbone; mirror-image nucleic acid
T6 sequence: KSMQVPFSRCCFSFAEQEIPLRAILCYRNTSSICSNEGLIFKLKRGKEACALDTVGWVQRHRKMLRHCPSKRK

[20] = biological target: T1, human MIP-1alpha (CCL3) (Homo sapiens); experiment: SPR; conditions: L-RNA; immobilized aptamer, 100 nM chemokine, 37 C; purified recombinant protein; label: 5'-biotin; mirror-image nucleic acid; variant of NOX-E36 (180-D1-036)
[21] = biological target: human SDF-1alpha (CXCL12alpha) (Homo sapiens) (UniProt P48061); experiment: SPR; conditions: L-RNA; 100 nM chemokine, 37 C; panel membership from sequence table; purified recombinant protein; label: 5'-biotin; synthetic backbone; mirror-image nucleic acid
[22] = biological target: T7, human PF4 (CXCL4) (Homo sapiens) (UniProt P02776); experiment: SPR; conditions: L-RNA; 100 nM chemokine, 37 C; panel membership from sequence table; purified recombinant protein; label: 5'-biotin; synthetic backbone; mirror-image nucleic acid
T7 sequence: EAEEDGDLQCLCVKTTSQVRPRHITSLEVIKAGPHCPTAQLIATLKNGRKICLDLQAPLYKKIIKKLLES

[23] = biological target: T8, human MIP-1beta (CCL4) (Homo sapiens) (UniProt P13236); experiment: SPR; conditions: L-RNA; 100 nM chemokine, 37 C; panel membership from sequence table; purified recombinant protein; label: 5'-biotin; synthetic backbone; mirror-image nucleic acid
T8 sequence: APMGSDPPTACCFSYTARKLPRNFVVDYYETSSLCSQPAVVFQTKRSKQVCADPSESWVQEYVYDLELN

[24] = biological target: T9, human NAP-2 (CXCL7) (Homo sapiens) (UniProt P02775); experiment: SPR; conditions: L-RNA; immobilized aptamer, 100 nM chemokine, 37 C; purified recombinant protein; label: 5'-biotin; mirror-image nucleic acid; variant of NOX-E36 (180-D1-036)
T9 sequence (limits assumed): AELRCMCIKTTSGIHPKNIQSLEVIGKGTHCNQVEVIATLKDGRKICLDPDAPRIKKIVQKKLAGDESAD

[25] = biological target: human MCP-4 (CCL13) (Homo sapiens) (UniProt Q99616); experiment: SPR; conditions: L-RNA; 100 nM chemokine, 37 C; kinetics in FIG. 24C only; purified recombinant protein; label: 5'-biotin; synthetic backbone; mirror-image nucleic acid
[26] = biological target: human IP-10 (CXCL10) (Homo sapiens) (UniProt P02778); experiment: SPR; conditions: L-RNA; 100 nM chemokine, 37 C; panel membership from sequence table; purified recombinant protein; label: 5'-biotin; synthetic backbone; mirror-image nucleic acid
[27] = biological target: T10, human RANTES (CCL5) (Homo sapiens) (UniProt P13501); experiment: SPR; conditions: L-RNA; 100 nM chemokine, 37 C; panel membership from sequence table; purified recombinant protein; label: 5'-biotin; synthetic backbone; mirror-image nucleic acid
T10 sequence: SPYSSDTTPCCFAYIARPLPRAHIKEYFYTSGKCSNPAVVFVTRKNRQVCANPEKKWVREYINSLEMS

[28] = biological target: human ENA-78 (CXCL5) (Homo sapiens) (UniProt P42830); experiment: SPR; conditions: L-RNA; 100 nM chemokine, 37 C; panel membership from sequence table; purified recombinant protein; label: 5'-biotin; synthetic backbone; mirror-image nucleic acid
[29] = biological target: human IL-8 (CXCL8) (Homo sapiens) (UniProt P10145); experiment: SPR; conditions: L-RNA; 100 nM chemokine, 37 C; panel membership from sequence table; purified recombinant protein; label: 5'-biotin; synthetic backbone; mirror-image nucleic acid
[30] = biological target: murine MCP-1 (CCL2) (Mus musculus) (UniProt P10148); experiment: activity in cells; conditions: L-RNA, Ca release, purified recombinant protein, mirror-image nucleic acid
[31] = range stated for 181-A2 and its derivatives, variant of 181-A2 Spiegelmer
[32] = range for human, monkey, porcine, canine MCP-1, 37 C
[33] = immobilized aptamer, 100 nM chemokine, label: 5'-biotin, variant of NOX-E36 (180-D1-036)
[34] = much lower affinity than human MCP-1, variant of 181-A2 Spiegelmer

Sequence: CCGCGUAGUGAGAAACUACCAACGACUGGCUAGAGCCGGCGG [181-A2-021]
- binding result [1, 31]: binds

Sequence: CGGCGUAGUGAGAAACUACCAACGACUGGCUAGAGCCGGCCG [181-A2-020]
- binding result [1, 31]: binds

Sequence: CUGCGUAGUGAGAAACUACCAACGACUGGCUAGAGCCGGCAG [181-A2-023]
- binding result [1, 31]: binds

Sequence: GAGCGUAGUGAGAAACUACCAACGACUGGCUAGAGCCGGCUC [181-A2-019]
- binding result [1, 31]: binds

Sequence: GCACGUCCCUCACCGGUGCAAGUGAAGCCGUGGCUCUGCG [NOX-E36 (180-D1-036)]
- functional effect of the aptamer [2]: not active
- IC50 ([3]; THP-1 chemotaxis, 0.5 nM MCP-1): 0.5 nM
- binding result [4, 32]: binds
- binding result [5]: no binding
- binding result [6]: binds
- binding result [7]: no binding
- binding result ([8]; range for human, monkey, porcine, canine MCP-1): binds
- binding result [9, 32]: binds
- binding result ([10]; not recognized): no binding
- binding result ([11]; not recognized): no binding
- binding result [12]: binds

Sequence: GCACGUCCCUCACCGGUGCAAGUGAAGCCGUGGCUCUGCG [NOX-E36-3'PEG]
- IC50 ([3]; 3'-PEG 40 kDa, Ca release, chemotaxis IC50 <1 nM (FIG. 26), variant of NOX-E36 (180-D1-036)): 3 nM

Sequence: GCACGUCCCUCACCGGUGCAAGUGAAGCCGUGGCUCUGCG [NOX-E36-5'PEG]
- IC50 ([3]; 5'-PEG 40 kDa, Ca release, chemotaxis IC50 <1 nM (FIG. 27B), variant of NOX-E36 (180-D1-036)): 3 nM

Sequence: GCACGUCCCUCACCGGUGCAAGUGAAGCCGUGGCUCUGCG [biotinylated NOX-E36]
- binding result [13]: no binding
- binding result [14]: no binding
- binding result [15]: no binding
- binding result [16]: no binding
- binding result [17]: no binding
- binding result [18]: no binding
- binding result [19]: no binding
- binding result [6, 33]: binds
- binding result [20]: binds
- binding result [21]: no binding
- binding result [22]: no binding
- binding result [23]: no binding
- binding result [1, 33]: binds
- binding result [24]: binds
- binding result [25]: no binding
- binding result [26]: no binding
- binding result [27]: no binding
- binding result [28]: no binding
- binding result [29]: no binding
- binding result [12, 33]: binds

Sequence: GGCGACAUUGGUUGGGCAUGAGGCGAGGCCCUUUGAUGAAUCCGCGGCCA [mNOX-E36 (188-A3-007)]
- IC50 ([30]; chemotaxis IC50 approx 7 nM (FIG. 16)): 12 nM

Sequence: GGCGACAUUGGUUGGGCAUGAGGCGAGGCCCUUUGAUGAAUCCGCGGCCA [mNOX-E36-3'PEG]
- IC50 ([30]; 3'-PEG, chemotaxis IC50 approx 3 nM (FIG. 31), variant of mNOX-E36 (188-A3-007)): 8 nM

Sequence: GGGCGUAGUGAGAAACUACCAACGACUGGCUAGAGCCGGCCC [181-A2-018]
- binding result [4, 34]: binds more weakly
- binding result ([5]; variant of 181-A2 Spiegelmer): no binding
- binding result ([6]; variant of 181-A2 Spiegelmer): binds
- binding result ([7]; variant of 181-A2 Spiegelmer): no binding
- binding result ([8]; range for human and monkey MCP-1, variant of 181-A2 Spiegelmer): binds
- binding result [9, 34]: binds more weakly
- binding result [10, 34]: binds more weakly
- binding result ([11]; variant of 181-A2 Spiegelmer): binds
- binding result ([12]; variant of 181-A2 Spiegelmer): binds

Sequence: GUCGCGUAGUGAGAAACUACCAACGACUGGCUAGAGCCGGCGAC [181-A2-006]
- binding result [1, 31]: binds

Sequence: GUGCCGUAGUGAGAAACUACCAACGACUGGCUAGAGCCGGGCAC [181-A2-004]
- binding result [1, 31]: binds

Sequence: GUGCGCGUAGUGAGAAACUACCAACGACUGGCUAGAGCCGGCGCAC [181-A2-002]
- binding result [1, 31]: binds

Sequence: GUGCGUAGUGAGAAACUACCAACGACUGGCUAGAGCCGGCAC [181-A2-017]
- binding result [1, 31]: binds

Sequence: GUGCUGCGUAGUGAGAAACUACCAACGACUGGCUAGAGCCGGCAGCAC [181-A2 Spiegelmer]
- IC50 ([3]; Ca release and chemotaxis): 0.5 nM
- binding result [1]: binds

Sequence: GUGCUGCGUAGUUAAAAACUACCAGCGACUGGCUAGAGCCGGCAGCAC [178-D5 Spiegelmer]
- IC50 ([3]; Ca release and chemotaxis): 0.5 nM

Sequence: GUGGCGUAGUGAGAAACUACCAACGACUGGCUAGAGCCGGCCAC [181-A2-005]
- binding result [1, 31]: binds

Sequence: UGCGCGUAGUGAGAAACUACCAACGACUGGCUAGAGCCGGCGCA [181-A2-007]
- binding result [1, 31]: binds

Source: US20090156542
